Results are given in words; binding and its absence hold for the method and conditions named. Some results given as binding are weak or reduced against the parent protein; the word gives no strength. Where a sequence is shown, tags or fusion partners need not be part of it.
T1: soluble extracellular domain of human α-Klotho (aa 1-980) fused to a 6xHis tag (human) (UniProt Q9UEF7)
T1 sequence: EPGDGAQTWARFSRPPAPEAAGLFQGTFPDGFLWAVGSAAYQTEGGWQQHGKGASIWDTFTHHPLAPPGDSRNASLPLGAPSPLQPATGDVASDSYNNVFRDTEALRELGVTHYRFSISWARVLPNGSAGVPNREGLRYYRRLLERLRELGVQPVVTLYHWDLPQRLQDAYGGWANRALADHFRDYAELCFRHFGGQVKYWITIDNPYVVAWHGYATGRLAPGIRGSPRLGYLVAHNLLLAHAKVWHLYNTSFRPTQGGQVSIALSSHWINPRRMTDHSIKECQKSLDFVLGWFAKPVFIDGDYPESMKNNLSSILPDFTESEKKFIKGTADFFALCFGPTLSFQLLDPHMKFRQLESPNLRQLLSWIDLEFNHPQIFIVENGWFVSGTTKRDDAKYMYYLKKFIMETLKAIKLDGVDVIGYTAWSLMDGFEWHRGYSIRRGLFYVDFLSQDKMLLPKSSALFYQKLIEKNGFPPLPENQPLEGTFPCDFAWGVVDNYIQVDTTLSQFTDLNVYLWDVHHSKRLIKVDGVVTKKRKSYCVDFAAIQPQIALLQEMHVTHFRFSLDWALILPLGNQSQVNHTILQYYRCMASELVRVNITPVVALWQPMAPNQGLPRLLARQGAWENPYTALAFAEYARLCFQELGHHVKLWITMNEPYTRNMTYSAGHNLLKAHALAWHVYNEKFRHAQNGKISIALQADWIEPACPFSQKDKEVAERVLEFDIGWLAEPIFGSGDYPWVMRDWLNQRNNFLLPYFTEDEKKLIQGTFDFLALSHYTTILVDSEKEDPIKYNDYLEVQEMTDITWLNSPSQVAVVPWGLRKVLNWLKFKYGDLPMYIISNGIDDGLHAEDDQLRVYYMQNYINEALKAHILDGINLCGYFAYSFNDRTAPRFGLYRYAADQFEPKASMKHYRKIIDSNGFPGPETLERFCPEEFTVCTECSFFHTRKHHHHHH

T2: α-Klotho fused to an N-terminal (extracellular) HaloTag on L6 cells (Homo sapiens (Human)) (UniProt Q9UEF7)
T2 sequence (chain, HaloTag labeled with Alexa488 HaloTag ligand): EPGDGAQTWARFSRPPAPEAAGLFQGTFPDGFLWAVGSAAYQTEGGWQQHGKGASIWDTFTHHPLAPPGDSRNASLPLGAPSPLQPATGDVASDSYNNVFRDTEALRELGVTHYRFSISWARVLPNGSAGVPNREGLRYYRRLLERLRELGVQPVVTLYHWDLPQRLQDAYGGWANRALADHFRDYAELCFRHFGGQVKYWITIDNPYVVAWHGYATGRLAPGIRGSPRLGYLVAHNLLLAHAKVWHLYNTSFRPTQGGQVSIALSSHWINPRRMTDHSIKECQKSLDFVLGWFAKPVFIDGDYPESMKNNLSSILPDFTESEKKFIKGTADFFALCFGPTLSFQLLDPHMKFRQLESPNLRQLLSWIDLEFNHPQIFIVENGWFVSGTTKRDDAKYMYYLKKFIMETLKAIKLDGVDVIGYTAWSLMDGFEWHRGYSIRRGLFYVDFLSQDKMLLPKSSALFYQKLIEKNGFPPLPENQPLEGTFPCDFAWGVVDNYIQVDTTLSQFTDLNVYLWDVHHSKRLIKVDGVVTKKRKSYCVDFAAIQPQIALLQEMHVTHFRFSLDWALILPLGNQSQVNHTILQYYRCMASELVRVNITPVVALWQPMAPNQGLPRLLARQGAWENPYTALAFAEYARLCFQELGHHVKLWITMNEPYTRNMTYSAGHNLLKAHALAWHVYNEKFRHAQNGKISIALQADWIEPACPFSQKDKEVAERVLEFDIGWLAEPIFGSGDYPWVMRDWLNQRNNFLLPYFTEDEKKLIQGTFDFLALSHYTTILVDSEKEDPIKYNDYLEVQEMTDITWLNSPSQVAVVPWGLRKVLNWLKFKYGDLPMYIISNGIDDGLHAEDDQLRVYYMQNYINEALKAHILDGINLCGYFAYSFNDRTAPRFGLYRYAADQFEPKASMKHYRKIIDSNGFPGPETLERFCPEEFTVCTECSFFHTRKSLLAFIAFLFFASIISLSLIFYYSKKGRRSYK


Columns and labels:
[1] = biological target: T1, soluble extracellular domain of human α-Klotho (aa 1-980) fused to a 6xHis tag (human); experiment: BLI sensorgrams; Flag-tagged FGF23 captured by anti-Flag antibody on anti-mouse-Fc biosensor, dipped into sKLA at 6.25-200 nM
[2] = biological target: T1, soluble extracellular domain of human α-Klotho (aa 1-980) fused to a 6xHis tag (human); experiment: BLI; figure legend
[3] = biological target: T2, α-Klotho fused to an N-terminal (extracellular) HaloTag on L6 cells (Homo sapiens (Human)); experiment: chimeric receptor activation and TIRFM single-molecule imaging on L6 cells

| binding [1] | binding [2] | binding [3] | Binder |
| --- | --- | --- | --- |
| binds | – | – | FLAG-tagged human FGF23 D188A mutant expressed in Expi293F cells (ligand) DYKDDDDKYPNASPLLGSSWGGLIHLYTATARNSYHLQIHKNGHVDGAPHQTIYSALMIRSEDAGFVVITGVMSRRYLCMDFRGNIFGSHYFDPENCRFQHQTLENGYDVYHSPQYHFLVSLGAAKAAFLPGMNPPPYSQFLSRRNEIPLIHFNTPIPRQHTQSAEDDSERAPLNVLKPRARMTPAPASCSQELPSAEDNSPMASDPLGVVRGGRVNTHAGGTGPEGCRPFAKFI |
| binds | – | – | FLAG-tagged human FGF23 C206S/C244S/D188A mutant expressed in Expi293F cells (ligand, also called FGF23-CS D188A) DYKDDDDKYPNASPLLGSSWGGLIHLYTATARNSYHLQIHKNGHVDGAPHQTIYSALMIRSEDAGFVVITGVMSRRYLCMDFRGNIFGSHYFDPENCRFQHQTLENGYDVYHSPQYHFLVSLGAAKAAFLPGMNPPPYSQFLSRRNEIPLIHFNTPIPRQHTQSAEDDSERAPLNVLKPRARMTPAPASSSQELPSAEDNSPMASDPLGVVRGGRVNTHAGGTGPEGSRPFAKFI |
| binds | binds | – | FLAG-tagged human FGF23 (aa 25-251) expressed in Expi293F cells (ligand, O-linked glycosylation (sites not given); Cys206-Cys244 disulfide bridge, also called FGF23-WT; mFGF23-WT) DYKDDDDKYPNASPLLGSSWGGLIHLYTATARNSYHLQIHKNGHVDGAPHQTIYSALMIRSEDAGFVVITGVMSRRYLCMDFRGNIFGSHYFDPENCRFQHQTLENGYDVYHSPQYHFLVSLGAAKAAFLPGMNPPPYSQFLSRRNEIPLIHFNTPIPRQHTQSAEDDSERDPLNVLKPRARMTPAPASCSQELPSAEDNSPMASDPLGVVRGGRVNTHAGGTGPEGCRPFAKFI |
| binds | binds | – | FLAG-tagged human FGF23 C206S/C244S mutant expressed in Expi293F cells (ligand, O-linked glycosylation (sites not given), also called FGF23-CS; mFGF23-CS) DYKDDDDKYPNASPLLGSSWGGLIHLYTATARNSYHLQIHKNGHVDGAPHQTIYSALMIRSEDAGFVVITGVMSRRYLCMDFRGNIFGSHYFDPENCRFQHQTLENGYDVYHSPQYHFLVSLGAAKAAFLPGMNPPPYSQFLSRRNEIPLIHFNTPIPRQHTQSAEDDSERDPLNVLKPRARMTPAPASSSQELPSAEDNSPMASDPLGVVRGGRVNTHAGGTGPEGSRPFAKFI |
| – | – | binds | full length human FGF23 (aa 25-251) expressed in E. coli (ligand) YPNASPLLGSSWGGLIHLYTATARNSYHLQIHKNGHVDGAPHQTIYSALMIRSEDAGFVVITGVMSRRYLCMDFRGNIFGSHYFDPENCRFQHQTLENGYDVYHSPQYHFLVSLGAAKAAFLPGMNPPPYSQFLSRRNEIPLIHFNTPIPRQHTQSAEDDSERDPLNVLKPRARMTPAPASCSQELPSAEDNSPMASDPLGVVRGGRVNTHAGGTGPEGCRPFAKFI |

Source: patent US20240034762A1 (YALE UNIVERSITY, published 2024)
